In patent US12421279B2 (priority 2016, dated 2025) one finds isolated yield data, which are given here for one substance.

The nature of the data set: general procedure: Fmoc solid-phase peptide synthesis; rink amide resin (100-200 mesh, 0.53 meq/g); DIC/OxymaPure. The settings on record: whole synthesis, overall.

In turn, “(3S,6S,14S,17S,20S,24S,25aS)-3-((1H-indol-3-yl)methyl)-14-amino-17-(2-amino-2-oxoethyl)-20-((S)-sec-butyl)-1,4,12,15,18,21-hexaoxo-24-(4-(4-(thiophen-2-yl)phenyl)-1H-1,2,3-triazol-1-yl)tetracosahydro-1H-pyrrolo[2,1-f][1,4, 7,10,13,18]hexaazacyclotricosine-6-carboxamide” registered an isolated yield of 55%.
